# Measurements reported in PubChem BioAssay AID1259308 (NCATS, 2017).
# Aim: 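Knock-downs that increase output of a recombinant reporter protein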 (primary screen)
# Cells: human HEK293 embryonic kidney cells stably expressing firefly luciferase (HEK-CMV-Luc2-Hygro)
# Knock-down reagent: single siRNA against human genes, 0.8 pmol siRNA per well
# Time to read-out: 72 h
# Detection: 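Reporter luminescence and viable-cell signal on separate replicate plates, given as percent of non-targeting control and median/MAD z-scores, plus per-cell luciferase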
# Scale: total luciferase, z-score and total luciferase, % of control: higher = more reporter protein produced; luciferase per cell, z-score: higher = more reporter output per viable cell; viable cells, % of control: higher = more viable cells
# Hit rule: 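An siRNA counts as active if its total luciferase robust z-score exceeds 3; genes with two or more such siRNAs out of three were retested with fresh siRNAs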
# Calls: active = raised luciferase; inactive = no rise
# The deposit covers about 59,000 reagents; shown is an unselected part. Of all reagents, about 1,510 (2.6%) were called active. 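Calls use total luciferase alone and ignore viability, so some active siRNAs may act by altering cell number.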 Unmarked entries are inactive. Reagents against one gene are numbered here. No sequences are given here.
Target gene,reagent no.,"total luciferase, z-score","total luciferase, % of control","luciferase per cell, z-score","viable cells, % of control"
HSP90AA1,1,-0.307,75.8,-0.00574,84.8
HSP90AA1,2,-0.104,79.8,-0.0705,90.9
HSP90AA1,3,-0.843,65.1,-0.842,90.8
MIF4GD,1,0.254,86.9,0.179,92.7
MIF4GD,2,0.383,89.5,-0.25,107
MIF4GD,3,-1.82,45.6,-1.27,71.3
HNRNPH2,1,0.86,99,0.732,91.2
HNRNPH2,2,3.25 (active),147,1.87,100
HNRNPH2,3,-0.0592,80.7,-0.127,93.3
UBQLN3,1,0.472,91.3,-0.0634,104
UBQLN3,2,-0.347,75,-0.577,97.5
UBQLN3,3,0.28,87.4,-0.0994,100
GID4,1,-1.27,56.7,-0.747,77.2
GID4,2,-2.4,34.2,-1.84,62
GID4,3,-2.58,30.7,-1.54,51.4
MAP3K8,1,-0.72,67.6,0.592,64.6
MAP3K8,2,2.59,133,2.52,76.8
MAP3K8,3,-1.66,48.9,-1.52,81.5
CLPSL1,1,2.32,128,0.815,115
CLPSL1,2,-1.41,53.9,-0.4,66.9
CLPSL1,3,-0.759,66.8,-0.624,88
G6PC1,1,-0.893,64.1,-0.527,82.3
G6PC1,2,-0.112,79.7,-0.496,101
G6PC1,3,-0.921,63.6,-0.862,89.1
SURF2,1,0.963,101,2.88,52.9
SURF2,2,-0.093,80,-0.173,93.6
SURF2,3,-0.155,78.8,-0.344,96.4
PECR,1,0.971,101,0.784,92
PECR,2,0.199,85.9,-0.188,101
PECR,3,-0.421,73.5,-0.378,90.7
ABCB4,1,0.114,84.1,-0.484,107
ABCB4,2,0.165,85.2,-0.399,106
ABCB4,3,0.422,90.3,0.128,97.5
TRAM2,1,-1.66,48.9,-1.41,79.2
TRAM2,2,0.809,98,2.68,54.1
TRAM2,3,-1.74,47.2,-0.845,65.9
LOC644634,1,0.576,93.3,0.676,87.3
LOC644634,2,-1.59,50.2,-0.405,62.4
LOC644634,3,3.63 (active),154,2.79,82.7
MED17,1,-1.59,50.3,-0.574,65.4
MED17,2,-1.34,55.2,-1.08,82.1
MED17,3,-2.41,33.9,-1.9,62.5
CYFIP1,1,-1.77,46.7,-1.19,71.4
CYFIP1,2,-1.08,60.5,-1.22,93.1
CYFIP1,3,-2.07,40.6,-2.15,79.9
P2RY6,1,-1.4,54.1,-1.3,85.1
P2RY6,2,-1.3,56.1,0.779,51.1
P2RY6,3,-0.7,68,-0.956,97.7
ZNF607,1,-0.0767,80.4,-0.557,104
ZNF607,2,1.33,108,0.807,97.8
ZNF607,3,-0.563,70.7,-0.258,84.5
ABCB9,1,0.0328,82.5,-0.179,96.7
ABCB9,2,0.397,89.8,0.195,95.3
ABCB9,3,0.18,85.5,2.01,56.2
VSIG10,1,3.68 (active),155,2.64,86.6
VSIG10,2,0.199,85.8,-0.408,107
VSIG10,3,1.48,111,1.47,84.4
GSTO1,1,-0.536,71.2,-1.1,106
GSTO1,2,-0.903,63.9,-1.06,94.5
GSTO1,3,-0.254,76.8,0.0395,85
QRICH1,1,1.23,106,1.25,85.5
QRICH1,2,1.19,106,1.25,84.9
QRICH1,3,-0.465,72.6,-1.16,110
FAM110C,1,1.2,106,0.528,103
FAM110C,2,-1.16,58.8,-1.15,89
FAM110C,3,-0.676,68.4,-0.953,98.3
ABR,1,-0.672,68.5,-1.04,101
ABR,2,0.421,90.3,0.0103,101
ABR,3,0.948,101,0.932,88.1
STOML3,1,-0.359,74.8,-0.0134,83.8
STOML3,2,2.64,134,2.23,83.5
STOML3,3,-0.823,65.5,-0.628,86.4
ATP6V1H,1,-0.481,72.3,-1.12,108
ATP6V1H,2,0.578,93.4,0.303,96.4
ATP6V1H,3,-1.12,59.7,-1.44,97.3
